Experimental data: US10882869B2, “Condensed heterocyclic compounds and pesticides” (NISSAN CHEMICAL CORPORATION, priority 2015, dated 2021)
Some entries share one result that the patent states for a list of compounds. At least one read-out could not be matched to a standard name with certainty. Some ranges recur; such a range may be that of the whole group of compounds. At least one structure is not confirmed: it was looked up by name or label, or the drawing left a doubt.

Tested on: Frankliniella occidentalis
Assay: Insecticidal activity on Frankliniella occidentalis (kidney bean leaf spray)
Assay type: in vivo
Conditions: 500 ppm solution sprayed (2.5 mg/cm^2), kidney bean leaves, 2 days after
Protocol: In styrol cups having an inner diameter of 7 cm, wet filter paper was laid, kidney bean leaves cut into a 3 cm square were laid on the paper, and each leaf was inoculated with 20 larvae of Frankliniella occidentalis. […] 2.5 ml of the solutions were sprayed from a rotary spray tower into the styrol cups (2.5 mg/cm^2).
2 Days after, dead insects were counted, and insect damage on kidney bean leaves was examined. The mortality was calculated by using the same equation as in Test Example 1.
The insect damage degree was evaluated as follows. 1: 0 to 20% insect damage, 2: 20 to 50% insect damage, 3: 50 to 70% insect damage, and 4: 70% or higher insect damge. The test was carried out in duplicate.

| Compound | insect damage degree |
| --- | --- |
| CCS(=O)(=O)c1c(-c2nc3cc([S+]([O-])C(F)(F)F)cnc3n2C)nc2cc(C(F)(F)F)ccn12 (stereo not shown) [1-1-122a] | 2 (20 to 50% insect damage) |
| CCS(=O)(=O)c1c(-c2nc3cc(S(=O)(=O)C(F)(F)F)cnc3n2C)nc2cc(C(F)(F)F)ccn12 [1-1-123a] | 2 (20 to 50% insect damage) |
| CCS(=O)(=O)c1c(-c2nc3cc(S(=O)(=O)C(F)(F)F)ccc3o2)nc2cc(C(F)(F)F)ccn12 [1-2-006a] | 2 (20 to 50% insect damage) |
| CCS(=O)(=O)c1c(-c2cn3ccc(C(F)(F)F)cc3n2)nc2ccc(I)cn12 [1-3-012a] | 2 (20 to 50% insect damage) |
| CCS(=O)(=O)c1c(-c2cn3ncc(C(F)(F)F)cc3n2)nc2ccc(I)cn12 [1-4-003a] | 2 (20 to 50% insect damage) |
| CCS(=O)(=O)c1c(-c2nc3cc(C(F)(F)F)ncc3n2C)nc2ccc(I)cn12 [1-8-007a] | 2 (20 to 50% insect damage) |
| CCS(=O)(=O)c1c(-c2nc3cc(C(F)(F)F)ncc3n2C)nc2c(F)cc(I)cn12 [1-8-008a] | 2 (20 to 50% insect damage) |
| CCS(=O)(=O)c1c(-c2nc3cc(C(F)(F)F)ncc3n2C)nc2c(F)cc(Br)cn12 [1-8-011a] | 2 (20 to 50% insect damage) |
| CCS(=O)(=O)c1c(-c2nc3cc(C(F)(F)F)ncc3n2C)nc2ccc(Br)cn12 [1-8-013a] | 2 (20 to 50% insect damage) |
| CCS(=O)(=O)c1c(-c2nc3cc(C(F)(F)F)ncc3n2C)nc2cc(C#N)c(I)cn12 [1-8-014a] | 2 (20 to 50% insect damage) |
| CCS(=O)(=O)c1c(-c2nc3cc(C(F)(F)F)ncc3n2C)nc2cc(F)c(I)cn12 [1-8-015a] | 2 (20 to 50% insect damage) |
| CCS(=O)(=O)c1c(-c2nc3cnc(C(F)(F)F)cc3n2C)nc2cc(C(F)(F)F)ccn12 [1-9-002a] | 2 (20 to 50% insect damage) |
| CCS(=O)(=O)c1c(-c2nc3cnc(C(F)(F)F)cc3n2C)nc2cc(Cl)ccn12 [1-9-003a] | 2 (20 to 50% insect damage) |
| CCS(=O)(=O)c1c(-n2cc3ncc(C(F)(F)F)cc3n2)nc2ccc(I)cn12 [1-10-003a] | 2 (20 to 50% insect damage) |
| CCS(=O)(=O)c1c(-n2cc3cnc(C(F)(F)F)cc3n2)nc2ccc(I)cn12 [1-11-003a] | 2 (20 to 50% insect damage) |
| CCS(=O)(=O)c1c(-n2cc3cnc(C(F)(F)F)cc3n2)nc2ccc(C(F)(F)F)cn12 [1-11-004a] | 2 (20 to 50% insect damage) |
| CCS(=O)(=O)c1c(-n2cc3cnc(C(F)(F)F)cc3n2)nc2c(F)cc(I)cn12 [1-11-006a] | 2 (20 to 50% insect damage) |
| CCS(=O)(=O)c1c(-n2cc3cnc(C(F)(F)F)cc3n2)nc2ccc(Br)cn12 [1-11-007a] | 2 (20 to 50% insect damage) |
| CC[S+]([O-])c1c(-n2cc3cnc(C(F)(F)F)cc3n2)nc2ccc(Br)cn12 (stereo not shown) [1-11-007c] | 2 (20 to 50% insect damage) |
| CCS(=O)(=O)c1c(-c2cn3nc(C(F)(F)F)sc3n2)nc2ccc(I)cn12 [1-12-009a] | 2 (20 to 50% insect damage) |
| CCS(=O)(=O)c1c(-c2nc3cc(C(F)(F)F)cnc3n2C)nc2sc(C(F)(F)F)nn12 [2-1-002a, 5-(ethylsulfonyl)-6-[3-methyl-6-(trifluoromethyl)-3H-imidazo[4,5-b]pyridin-2-yl]-2-(trifluoromethyl)imidazo[2,1-b][1,3,4]thiadiazole] | 2 (20 to 50% insect damage) |
| CCS(=O)(=O)c1c(-c2nc3cc(C(F)(F)F)cnc3n2C)n(C)c2ccc(C(F)(F)F)cc12 [3-1-001a, 2-[3-(ethylsulfonyl)-1-methyl-5-(trifluoromethyl)-1H-indol-2-yl]-3-methyl-6-(trifluoromethyl)-3H-imidazo[4,5-b]pyridine] | 2 (20 to 50% insect damage) |
